Results deposited as PubChem BioAssay AID1508597 (Cure First, 2020)
Shown is a random part of the about 2,100 reagents, in one setting of the screen. 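Calls flag viability under 80% in either arm, not effects specific to rucaparib; the reference for percent is not stated.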 Reagent sequences are not shown. The record does not give: the 100% reference.

Test: 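Knock-downs altering ovarian cancer cell survival with or without PARP inhibitor rucaparib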 (primary screen)
Cells: human ovarian carcinoma lines grown from tumours: OCI-P5x (papillary serous) and OCI-C5x (clear cell)
Reagents: siRNA pool against human genes, 1.25 pmol siRNA per well
Time to read-out: 72 h or 96 h, depending on the cell culture
Conditions: rucaparib 20 µM (about IC30) or vehicle, present until read-out
Rucaparib or vehicle: Rucaparib
Cell line: OCI-P5x (serous)
Measurement: 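Luminescent ATP-based viability assay read 72 or 96 h after transfection, depending on culture, given as normalised percent viability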
Reading the numbers: viability, normalised: higher = more viable cells remaining
Active means: 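Active when normalised viability falls below 80 percent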
Meaning of the calls: active = viability under 80%; inactive = viability 80% or more

Target gene,technical replicate,"viability, normalised (%)",call
BCKDK (branched chain keto acid dehydrogenase kinase),1,51.5,active
BCKDK (branched chain keto acid dehydrogenase kinase),2,65.5,active
BCKDK (branched chain keto acid dehydrogenase kinase),3,75.4,active
CTPS2 (CTP synthase 2),1,87,inactive
CTPS2 (CTP synthase 2),2,106,inactive
CTPS2 (CTP synthase 2),3,109,inactive
PRKAR2B,1,127,inactive
PRKAR2B,2,146,inactive
PRKAR2B,3,148,inactive
CCNH (cyclin H),1,66.9,active
CCNH (cyclin H),2,71.6,active
CCNH (cyclin H),3,56.1,active
HDGFL1 (HDGF like 1),1,64.9,active
HDGFL1 (HDGF like 1),2,66.5,active
HDGFL1 (HDGF like 1),3,63.7,active
TLR7 (toll like receptor 7),1,60.3,active
TLR7 (toll like receptor 7),2,49.3,active
TLR7 (toll like receptor 7),3,50.3,active
DHX57 (DExH-box helicase 57),1,80.8,inactive
DHX57 (DExH-box helicase 57),2,93.1,inactive
DHX57 (DExH-box helicase 57),3,75.4,active

Quoted from above for reference:
Target gene,technical replicate,"viability, normalised (%)",call
HDGFL1 (HDGF like 1),1,64.9,active
HDGFL1 (HDGF like 1),2,66.5,active

The list goes on.
Target gene,technical replicate,"viability, normalised (%)",call
RAD50 (RAD50 double strand break repair protein),1,77.6,active
RAD50 (RAD50 double strand break repair protein),2,91.5,inactive
RAD50 (RAD50 double strand break repair protein),3,103,inactive
CHD8 (chromodomain helicase DNA binding protein 8),1,87.7,inactive
CHD8 (chromodomain helicase DNA binding protein 8),2,77.9,active
CHD8 (chromodomain helicase DNA binding protein 8),3,75.4,active
MTA1 (metastasis associated 1),1,40.1,active
MTA1 (metastasis associated 1),2,38.2,active
MTA1 (metastasis associated 1),3,40.2,active
ZNF451 (zinc finger protein 451),1,47.2,active
ZNF451 (zinc finger protein 451),2,61.1,active
ZNF451 (zinc finger protein 451),3,67.8,active
MACROD1 (mono-ADP ribosylhydrolase 1),1,69.1,active
MACROD1 (mono-ADP ribosylhydrolase 1),2,73.5,active
MACROD1 (mono-ADP ribosylhydrolase 1),3,79,active
MEAF6 (MYST/Esa1 associated factor 6),1,53.4,active
MEAF6 (MYST/Esa1 associated factor 6),2,53.3,active
MEAF6 (MYST/Esa1 associated factor 6),3,55.4,active
